We go through one substance from PMC12218935, “Opposing role of phagocytic receptors MERTK and AXL in Progranulin deficient FTD” (Communications Biology, 2025).

Sequences of proteins named here, by UniProt entry; tags and fusion partners are left off. A change or cut given only in a name is not applied to a line headed by its entry. Residues count along the entry.
UniProt P30530, residues 26-451: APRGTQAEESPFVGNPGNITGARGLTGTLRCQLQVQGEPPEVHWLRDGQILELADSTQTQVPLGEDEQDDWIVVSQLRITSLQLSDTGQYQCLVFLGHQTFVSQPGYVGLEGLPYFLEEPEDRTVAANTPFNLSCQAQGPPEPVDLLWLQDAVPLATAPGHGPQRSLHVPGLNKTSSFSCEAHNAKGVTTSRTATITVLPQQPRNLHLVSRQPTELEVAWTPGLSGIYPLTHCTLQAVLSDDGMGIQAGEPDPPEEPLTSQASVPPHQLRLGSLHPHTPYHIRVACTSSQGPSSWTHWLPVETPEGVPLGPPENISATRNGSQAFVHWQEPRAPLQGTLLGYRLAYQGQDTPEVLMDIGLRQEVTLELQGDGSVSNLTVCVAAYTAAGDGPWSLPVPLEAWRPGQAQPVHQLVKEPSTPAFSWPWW
UniProt P28799, residues 18-593: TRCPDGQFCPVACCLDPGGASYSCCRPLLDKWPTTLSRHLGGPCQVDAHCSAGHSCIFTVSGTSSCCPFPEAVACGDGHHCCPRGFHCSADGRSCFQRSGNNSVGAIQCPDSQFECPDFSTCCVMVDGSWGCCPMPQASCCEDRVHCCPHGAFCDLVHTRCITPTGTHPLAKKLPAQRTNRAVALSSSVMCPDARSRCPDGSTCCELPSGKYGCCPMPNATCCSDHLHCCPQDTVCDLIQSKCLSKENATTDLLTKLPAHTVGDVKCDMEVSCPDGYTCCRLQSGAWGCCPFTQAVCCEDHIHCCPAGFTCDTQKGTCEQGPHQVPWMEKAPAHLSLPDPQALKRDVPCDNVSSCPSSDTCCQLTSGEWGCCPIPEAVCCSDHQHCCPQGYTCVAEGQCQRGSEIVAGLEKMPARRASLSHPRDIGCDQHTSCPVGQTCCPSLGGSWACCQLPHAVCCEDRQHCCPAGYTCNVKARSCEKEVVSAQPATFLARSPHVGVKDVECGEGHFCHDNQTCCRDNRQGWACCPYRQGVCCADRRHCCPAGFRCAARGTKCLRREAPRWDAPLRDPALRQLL

No constants are given. Whether binding was seen depends on the method and setting. For some assays here: Sequences can lack the tags named with a protein.

For experiment [1], the target named is Fc-Axl (AXL Fc chimera) (human) (UniProt P30530). The experiment is described as follows: SPR; Biacore T200, CM5 chip; Protein A amine-coupled (2300 RU), Fc-Mer (150 RU) or Fc-Axl (140 RU) captured; Gas6 or PGRN injected at 20 uL/min for 500 s, 1000 s dissociation; HBS-EP+ with 1.5 mM CaCl2 and 0.1% BSA; 1:1 kinetic model; both purified. On the technique in general: SPR reads the build-up and loss of mass on a sensor chip optically.

The target in experiment [2] is T1, Fc-Mer (MERTK Fc chimera) (human, UniProt Q12866 21-505).
T1 chain: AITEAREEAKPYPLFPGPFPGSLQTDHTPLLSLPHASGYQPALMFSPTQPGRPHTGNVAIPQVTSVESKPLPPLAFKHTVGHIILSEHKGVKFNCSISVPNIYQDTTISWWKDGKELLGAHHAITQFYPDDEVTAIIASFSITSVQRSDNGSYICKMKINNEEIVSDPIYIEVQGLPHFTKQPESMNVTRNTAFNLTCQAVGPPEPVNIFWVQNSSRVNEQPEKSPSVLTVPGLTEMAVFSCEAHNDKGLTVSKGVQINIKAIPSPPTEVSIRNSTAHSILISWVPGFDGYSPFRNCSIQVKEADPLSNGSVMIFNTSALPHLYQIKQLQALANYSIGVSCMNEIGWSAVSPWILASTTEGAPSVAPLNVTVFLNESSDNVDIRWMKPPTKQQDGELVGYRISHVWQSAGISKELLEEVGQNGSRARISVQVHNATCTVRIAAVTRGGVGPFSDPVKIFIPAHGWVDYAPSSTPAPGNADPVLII
The description is as above.

“progranulin (PGRN), recombinant human (from UniProt P28799 18-593)”: the binding entry in experiment [1] and in experiment [2] was “no binding” each time.
